Experimental data from the supplement of paper PMC11006884.
The list shows a part of the results, in another mix than the full data.

Amino acid sequences for entries named in this document (tags omitted). A change or cut given only in a name is not applied to a line headed by its entry.
UniProt A2RUB1: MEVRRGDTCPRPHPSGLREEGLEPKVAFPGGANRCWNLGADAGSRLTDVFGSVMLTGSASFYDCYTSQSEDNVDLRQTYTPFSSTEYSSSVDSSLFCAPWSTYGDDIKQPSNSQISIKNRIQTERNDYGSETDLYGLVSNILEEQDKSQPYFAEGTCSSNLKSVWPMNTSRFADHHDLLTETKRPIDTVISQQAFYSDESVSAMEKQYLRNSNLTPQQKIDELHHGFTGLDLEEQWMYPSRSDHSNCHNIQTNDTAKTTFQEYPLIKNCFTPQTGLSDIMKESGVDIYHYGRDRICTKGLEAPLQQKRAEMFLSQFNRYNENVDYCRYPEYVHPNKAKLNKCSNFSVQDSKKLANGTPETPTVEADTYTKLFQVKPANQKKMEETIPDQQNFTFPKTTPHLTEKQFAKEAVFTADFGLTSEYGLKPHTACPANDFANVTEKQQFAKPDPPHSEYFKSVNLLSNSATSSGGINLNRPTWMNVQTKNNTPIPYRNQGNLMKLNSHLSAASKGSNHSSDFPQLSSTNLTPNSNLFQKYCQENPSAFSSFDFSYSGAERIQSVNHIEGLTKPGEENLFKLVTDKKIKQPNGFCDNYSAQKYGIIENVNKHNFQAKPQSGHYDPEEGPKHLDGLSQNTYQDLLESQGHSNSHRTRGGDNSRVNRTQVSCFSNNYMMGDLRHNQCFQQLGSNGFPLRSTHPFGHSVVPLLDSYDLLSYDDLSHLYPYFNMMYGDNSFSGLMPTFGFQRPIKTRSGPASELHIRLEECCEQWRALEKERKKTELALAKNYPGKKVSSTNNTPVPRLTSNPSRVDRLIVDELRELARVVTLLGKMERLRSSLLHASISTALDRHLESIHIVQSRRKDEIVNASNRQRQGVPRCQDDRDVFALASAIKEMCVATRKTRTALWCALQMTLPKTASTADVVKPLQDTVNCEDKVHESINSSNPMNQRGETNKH
UniProt A6NHR9: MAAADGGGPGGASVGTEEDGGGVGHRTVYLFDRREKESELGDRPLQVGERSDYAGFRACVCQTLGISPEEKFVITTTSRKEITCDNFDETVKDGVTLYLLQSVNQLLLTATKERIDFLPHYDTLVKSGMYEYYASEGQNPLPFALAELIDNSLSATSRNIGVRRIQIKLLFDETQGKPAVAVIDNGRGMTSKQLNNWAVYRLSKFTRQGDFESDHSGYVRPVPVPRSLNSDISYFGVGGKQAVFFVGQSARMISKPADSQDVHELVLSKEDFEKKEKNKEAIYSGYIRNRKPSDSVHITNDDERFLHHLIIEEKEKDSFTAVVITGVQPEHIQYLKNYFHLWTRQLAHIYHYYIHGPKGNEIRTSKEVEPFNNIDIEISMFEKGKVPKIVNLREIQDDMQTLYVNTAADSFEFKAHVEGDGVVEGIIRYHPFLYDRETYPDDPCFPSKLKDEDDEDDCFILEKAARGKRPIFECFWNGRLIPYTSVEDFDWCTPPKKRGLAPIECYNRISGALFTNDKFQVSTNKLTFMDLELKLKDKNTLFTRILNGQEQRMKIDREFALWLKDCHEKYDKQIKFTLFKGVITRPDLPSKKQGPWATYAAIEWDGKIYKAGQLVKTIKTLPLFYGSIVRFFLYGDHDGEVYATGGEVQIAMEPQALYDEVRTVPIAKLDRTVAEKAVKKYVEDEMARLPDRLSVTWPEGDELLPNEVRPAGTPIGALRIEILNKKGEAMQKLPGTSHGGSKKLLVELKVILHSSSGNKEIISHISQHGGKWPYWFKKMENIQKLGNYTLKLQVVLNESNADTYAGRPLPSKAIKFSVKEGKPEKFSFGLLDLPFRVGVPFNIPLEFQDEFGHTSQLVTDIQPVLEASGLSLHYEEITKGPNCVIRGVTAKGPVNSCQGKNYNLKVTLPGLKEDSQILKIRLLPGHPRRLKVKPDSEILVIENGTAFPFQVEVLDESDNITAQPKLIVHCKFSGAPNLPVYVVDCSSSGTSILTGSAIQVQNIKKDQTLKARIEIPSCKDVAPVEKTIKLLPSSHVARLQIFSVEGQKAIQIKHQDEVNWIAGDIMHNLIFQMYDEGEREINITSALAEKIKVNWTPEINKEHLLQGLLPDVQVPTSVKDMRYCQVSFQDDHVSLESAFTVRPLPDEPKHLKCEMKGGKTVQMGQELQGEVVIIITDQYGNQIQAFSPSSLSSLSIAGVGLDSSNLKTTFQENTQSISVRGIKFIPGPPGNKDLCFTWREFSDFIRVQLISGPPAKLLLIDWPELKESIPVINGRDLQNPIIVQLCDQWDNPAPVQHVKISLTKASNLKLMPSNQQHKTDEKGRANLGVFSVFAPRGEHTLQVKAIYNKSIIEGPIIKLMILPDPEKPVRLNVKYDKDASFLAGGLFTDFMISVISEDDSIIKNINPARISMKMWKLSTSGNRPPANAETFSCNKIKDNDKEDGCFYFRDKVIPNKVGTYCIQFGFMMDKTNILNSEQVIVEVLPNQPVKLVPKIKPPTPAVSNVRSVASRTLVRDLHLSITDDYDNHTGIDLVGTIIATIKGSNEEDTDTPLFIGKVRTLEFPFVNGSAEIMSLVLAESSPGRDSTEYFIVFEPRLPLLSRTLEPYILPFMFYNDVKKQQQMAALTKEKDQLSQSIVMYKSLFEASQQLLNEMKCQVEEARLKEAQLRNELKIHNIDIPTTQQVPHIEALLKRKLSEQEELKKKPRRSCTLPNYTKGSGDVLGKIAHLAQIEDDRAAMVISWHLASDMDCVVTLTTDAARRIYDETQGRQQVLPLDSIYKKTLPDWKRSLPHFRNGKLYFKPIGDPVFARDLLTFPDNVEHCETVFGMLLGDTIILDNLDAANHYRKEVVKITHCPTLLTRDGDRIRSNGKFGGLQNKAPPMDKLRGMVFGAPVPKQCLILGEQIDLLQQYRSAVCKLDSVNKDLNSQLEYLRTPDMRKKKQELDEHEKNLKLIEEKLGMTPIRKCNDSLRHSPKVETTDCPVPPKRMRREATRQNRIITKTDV
UniProt A6NDG6: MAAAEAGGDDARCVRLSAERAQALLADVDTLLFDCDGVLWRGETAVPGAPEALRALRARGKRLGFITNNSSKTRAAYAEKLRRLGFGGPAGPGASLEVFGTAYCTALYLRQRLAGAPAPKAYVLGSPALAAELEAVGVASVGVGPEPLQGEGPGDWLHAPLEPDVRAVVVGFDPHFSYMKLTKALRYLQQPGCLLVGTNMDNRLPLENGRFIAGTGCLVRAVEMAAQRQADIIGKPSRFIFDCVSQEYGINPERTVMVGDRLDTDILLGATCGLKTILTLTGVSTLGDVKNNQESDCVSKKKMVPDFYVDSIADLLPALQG
UniProt A5YKK6, whole entry, looked up: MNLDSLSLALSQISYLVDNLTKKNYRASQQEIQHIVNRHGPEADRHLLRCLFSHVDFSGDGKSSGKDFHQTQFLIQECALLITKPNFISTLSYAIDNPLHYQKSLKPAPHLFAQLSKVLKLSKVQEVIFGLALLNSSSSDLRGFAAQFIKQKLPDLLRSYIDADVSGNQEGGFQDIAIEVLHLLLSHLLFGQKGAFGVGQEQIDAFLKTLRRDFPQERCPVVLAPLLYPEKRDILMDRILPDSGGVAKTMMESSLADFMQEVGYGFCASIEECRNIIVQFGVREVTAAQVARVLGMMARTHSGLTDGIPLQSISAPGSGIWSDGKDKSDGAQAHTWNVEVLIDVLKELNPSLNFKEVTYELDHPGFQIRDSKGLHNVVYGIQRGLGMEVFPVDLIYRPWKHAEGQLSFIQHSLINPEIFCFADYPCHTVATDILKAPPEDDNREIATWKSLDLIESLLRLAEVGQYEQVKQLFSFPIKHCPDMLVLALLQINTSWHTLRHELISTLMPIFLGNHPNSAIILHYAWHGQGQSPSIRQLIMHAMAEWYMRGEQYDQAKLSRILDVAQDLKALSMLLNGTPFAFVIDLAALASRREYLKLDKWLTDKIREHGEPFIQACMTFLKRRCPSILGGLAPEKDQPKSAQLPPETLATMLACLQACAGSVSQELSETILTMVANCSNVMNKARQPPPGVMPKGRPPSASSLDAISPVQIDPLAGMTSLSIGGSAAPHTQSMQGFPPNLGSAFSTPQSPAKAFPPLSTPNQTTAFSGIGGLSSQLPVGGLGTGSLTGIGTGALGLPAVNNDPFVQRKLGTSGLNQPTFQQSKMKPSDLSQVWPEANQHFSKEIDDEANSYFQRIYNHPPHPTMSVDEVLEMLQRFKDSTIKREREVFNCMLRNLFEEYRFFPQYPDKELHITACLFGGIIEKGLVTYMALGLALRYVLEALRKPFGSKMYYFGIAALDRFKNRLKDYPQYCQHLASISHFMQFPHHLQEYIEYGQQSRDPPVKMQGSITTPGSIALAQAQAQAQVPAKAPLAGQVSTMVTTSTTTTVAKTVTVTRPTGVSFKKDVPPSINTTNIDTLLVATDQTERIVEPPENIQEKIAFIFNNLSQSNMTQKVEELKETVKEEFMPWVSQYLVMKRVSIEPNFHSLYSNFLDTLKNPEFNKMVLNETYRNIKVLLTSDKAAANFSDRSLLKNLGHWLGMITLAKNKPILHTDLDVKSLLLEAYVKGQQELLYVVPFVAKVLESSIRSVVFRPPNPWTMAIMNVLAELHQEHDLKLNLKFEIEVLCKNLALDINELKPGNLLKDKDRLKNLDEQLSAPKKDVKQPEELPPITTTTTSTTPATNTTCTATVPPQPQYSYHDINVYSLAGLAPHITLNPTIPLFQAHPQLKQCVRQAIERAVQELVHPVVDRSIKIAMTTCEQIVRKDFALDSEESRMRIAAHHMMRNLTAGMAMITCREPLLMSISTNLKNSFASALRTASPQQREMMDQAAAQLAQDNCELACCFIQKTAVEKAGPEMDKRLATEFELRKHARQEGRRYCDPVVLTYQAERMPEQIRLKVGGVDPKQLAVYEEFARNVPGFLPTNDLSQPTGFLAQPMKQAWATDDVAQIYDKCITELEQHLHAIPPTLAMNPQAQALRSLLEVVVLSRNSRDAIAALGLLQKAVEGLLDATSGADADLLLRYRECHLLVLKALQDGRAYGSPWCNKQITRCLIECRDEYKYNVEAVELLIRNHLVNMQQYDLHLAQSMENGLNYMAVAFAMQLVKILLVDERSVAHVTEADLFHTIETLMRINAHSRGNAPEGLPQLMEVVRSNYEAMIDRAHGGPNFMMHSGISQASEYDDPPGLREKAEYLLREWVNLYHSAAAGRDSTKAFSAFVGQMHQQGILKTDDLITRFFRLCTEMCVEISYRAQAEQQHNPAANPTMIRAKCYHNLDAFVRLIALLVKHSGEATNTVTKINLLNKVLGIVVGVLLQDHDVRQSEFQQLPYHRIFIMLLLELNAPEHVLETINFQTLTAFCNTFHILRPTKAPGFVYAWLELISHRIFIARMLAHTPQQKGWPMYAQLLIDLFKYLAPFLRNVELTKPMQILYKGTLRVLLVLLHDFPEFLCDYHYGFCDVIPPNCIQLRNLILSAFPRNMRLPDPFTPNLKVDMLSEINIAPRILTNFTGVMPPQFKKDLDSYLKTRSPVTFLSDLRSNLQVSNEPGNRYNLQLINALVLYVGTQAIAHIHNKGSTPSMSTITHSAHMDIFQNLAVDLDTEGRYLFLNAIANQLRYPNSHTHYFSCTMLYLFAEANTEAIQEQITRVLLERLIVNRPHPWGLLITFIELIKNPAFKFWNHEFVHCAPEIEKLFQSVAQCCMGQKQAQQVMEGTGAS
UniProt A6NDU8: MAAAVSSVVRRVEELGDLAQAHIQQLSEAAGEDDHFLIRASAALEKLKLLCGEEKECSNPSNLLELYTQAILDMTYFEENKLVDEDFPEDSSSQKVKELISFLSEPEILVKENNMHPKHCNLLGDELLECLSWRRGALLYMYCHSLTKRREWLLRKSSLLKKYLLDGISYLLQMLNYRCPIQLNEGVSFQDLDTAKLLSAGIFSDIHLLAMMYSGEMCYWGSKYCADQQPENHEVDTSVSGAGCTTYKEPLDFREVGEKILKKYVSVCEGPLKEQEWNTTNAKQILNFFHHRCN
UniProt A0MZ66, whole entry, looked up: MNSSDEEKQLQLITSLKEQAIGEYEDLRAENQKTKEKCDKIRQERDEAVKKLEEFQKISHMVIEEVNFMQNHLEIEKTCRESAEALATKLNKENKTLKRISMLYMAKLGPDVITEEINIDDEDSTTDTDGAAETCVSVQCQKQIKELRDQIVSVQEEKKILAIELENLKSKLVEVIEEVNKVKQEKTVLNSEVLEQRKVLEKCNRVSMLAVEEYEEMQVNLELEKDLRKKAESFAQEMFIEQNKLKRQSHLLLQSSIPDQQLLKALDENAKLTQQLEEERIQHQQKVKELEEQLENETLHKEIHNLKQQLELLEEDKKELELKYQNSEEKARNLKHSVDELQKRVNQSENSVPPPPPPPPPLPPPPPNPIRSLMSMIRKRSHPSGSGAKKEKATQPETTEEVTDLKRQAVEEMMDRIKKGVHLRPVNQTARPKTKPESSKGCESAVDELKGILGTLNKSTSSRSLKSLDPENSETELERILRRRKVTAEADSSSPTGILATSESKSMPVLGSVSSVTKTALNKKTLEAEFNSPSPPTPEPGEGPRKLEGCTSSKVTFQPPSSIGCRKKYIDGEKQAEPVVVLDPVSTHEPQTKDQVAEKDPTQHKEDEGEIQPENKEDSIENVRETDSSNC

Compound: COC(=O)C#Cc1ccccc1 [methyl 3-phenylpropiolate]
Experiment: log2 ratio of iodoacetamide-alkyne labeling of the cysteine site, DMSO over compound (competition); higher = stronger covalent engagement of the cysteine by the compound, active = 1 or more
Conditions: 500 µM; treatment time 1 h; system: HEK293T cell lysate
Outline: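 Reporter intensities give each cysteine's log2 competition ratio as the mean of control channels over the mean of compound channels. The samples were HEK293T lysate (2 mg/mL) given vehicle or electrophile (500 µM, 1 h, ambient temperature), then iodoacetamide alkyne (1 h), followed by click coupling to sCIP-TMT reagents, pooling, trypsin digestion overnight at 37 °C, streptavidin enrichment, acid elution, Orbitrap Eclipse LC-MS/MS with FAIMS and FragPipe quantification. Duplicate channels and three replicates were run, and cysteines quantified in only one replicate were discarded.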

Target	log2 ratio of iodoacetamide-alkyne labeling
A0AVT1_C546	inactive: 0.402
UniProt A2RUB1_C342	inactive: 0.75
DDTL C24 (UniProt A6NHG4)	inactive: -0.0505
SMCHD1 C1917 (UniProt A6NHR9)	inactive: -0.0118
SMCHD1 C1899 (UniProt A6NHR9)	inactive: 0.338
SMCHD1 C1124 (UniProt A6NHR9)	inactive: 0.17
TMEM189 C21 (UniProt A5PLL7)	active: 1.52
A0AVT1_C347	active: 2.27
UHRF1BP1L C647 (UniProt A0JNW5)	inactive: 0.147
SMCHD1 C1823 (UniProt A6NHR9)	inactive: -0.0104
SH3PXD2B C783 (UniProt A1X283)	inactive: 0.777
PGP C193 (UniProt A6NDG6)	inactive: -0.0768
GTPBP10 C338 (UniProt A4D1E9)	inactive: -0.201
UHRF1BP1L C633 (UniProt A0JNW5)	inactive: -0.28
ILVBL C568 (UniProt A1L0T0)	inactive: 0.587
PGP C297 (UniProt A6NDG6)	active: 1.17
PGP C243 (UniProt A6NDG6)	inactive: 0.0497
CNOT1 C1541 (UniProt A5YKK6)	inactive: 0.498
CNOT1 C624 (UniProt A5YKK6)	inactive: 0.347

Retrieved one by one from the entries so far:
Target	log2 ratio of iodoacetamide-alkyne labeling
GTPBP10 C338 (UniProt A4D1E9)	inactive: -0.201
PGP C193 (UniProt A6NDG6)	inactive: -0.0768

Carrying on.

Target	log2 ratio of iodoacetamide-alkyne labeling
ZNF316 C650 (UniProt A6NFI3)	inactive: 0.386
SMCHD1 C84 (UniProt A6NHR9)	inactive: -0.0492
A0AV96_C349	inactive: -0.0266
SMCHD1 C1433 (UniProt A6NHR9)	inactive: 0.392
A0AVT1_C625	inactive: 0.437
SMCHD1 C492 (UniProt A6NHR9)	inactive: 0.23
UniProt A2RUB1_C664	inactive: 0.522
A0AVT1_C721	inactive: 0.0661
UniProt A2RUB1_C269	inactive: 0.363
SMCHD1 C1856 (UniProt A6NHR9)	inactive: 0.734
TMEM189 C22 (UniProt A5PLL7)	active: 1.52
CNOT1 C219 (UniProt A5YKK6)	inactive: 0.263
SMCHD1 C1656 (UniProt A6NHR9)	inactive: 0.256
C5orf51 C179 (UniProt A6NDU8)	inactive: 0.512
UniProt A0MZ66_C565	inactive: 0.734
SMCHD1 C59 (UniProt A6NHR9)	inactive: 0.182
UniProt A0MZ66_C442	inactive: 0.217
ILVBL C315 (UniProt A1L0T0)	inactive: 0.225
